Measured data: PubChem BioAssay AID1224826 (NIAID, 2016)

Screen: 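Knock-downs that raise or lower Tnf reporter signal after endotoxin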 (primary screen)
System: RAW264.7 G9 macrophages from mouse bearing reporters for p65 (GFP) and the Tnf promoter (mCherry)
Knock-down reagent: siRNA pool against mouse genes, 100 nM
Timing: 16 h of LPS stimulation, after 2 days of siRNA transfection
Conditions: bacterial lipopolysaccharide (Salmonella minnesota R595), 10 ng/ml
Measurement: 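Imaged Tnf reporter mCherry in nuclei, minus background, normalised per plate to the median and expressed as robust z-scores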
Scale: Tnf reporter robust z-score: higher = stronger Tnf promoter reporter signal after LPS
Hit rule: 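a well counts as active at a score of -1.3 or below (Tlr4 knock-down control median) or above 3 (raised signal); controls and wells holding fewer than 50 cells are excluded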
Meaning of the calls: active = Tnf reporter clearly lowered or raised; inactive = no clear change in Tnf reporter
The whole screen tested about 17,000 reagents; this is a part drawn at random. In the full data, about 1,110 (6.6%) got an active call. 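Active means lowered or raised reporter signal; replicate intensities are raw and not normalised per plate.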 Unmarked entries are inactive. Some reagents were tested in more than one well and are listed for each. Further read-outs or replicates are left out here.

| target gene | Tnf reporter robust z-score | fewer than 50 cells in well |
| --- | --- | --- |
| Abca5 | 0.72 | enough cells in well |
| Tmem45a2 | – | fewer than 50 cells per well; well left out of calls |
| Ccl12 | – | fewer than 50 cells per well; well left out of calls |
| Ccl12 | 0.45 | enough cells in well |
| Muc6 | -0.61 | enough cells in well |
| Supt16 | 1.23 | enough cells in well |
| Tubb5 | 0.75 | enough cells in well |
| Or9s27 | 0.04 | enough cells in well |
| Mro | 2.31 | enough cells in well |

The list goes on (2 carried over from the part before).
| target gene | Tnf reporter robust z-score | fewer than 50 cells in well |
| --- | --- | --- |
| Or9s27 | 0.04 | enough cells in well |
| Mro | 2.31 | enough cells in well |
| Dnaaf6 | 0.98 | enough cells in well |
| Napa | -0.69 | enough cells in well |
| Trim10 | -0.57 | enough cells in well |
| Arid5b | -0.7 | enough cells in well |
| Taf12 | 4.3 (active) | enough cells in well |
| Trim33 | -0.19 | enough cells in well |
| Trpm2 | -0.59 | enough cells in well |
| Ncf4 | -0.48 | enough cells in well |
| A930012O16Rik | 2.02 | enough cells in well |
| Slc9a1 | – | fewer than 50 cells per well; well left out of calls |
| Btaf1 | -0.37 | enough cells in well |
| Mansc1 | -0.31 | enough cells in well |
| Or13c7b | -0.07 | enough cells in well |
| Rap2b | -1 | enough cells in well |
| Nop58 | 0.67 | enough cells in well |
